No constants are given. Whether binding was seen depends on the method and setting. For part of these data: Binding seen in cells or lysates may run through a third protein. Some binding calls cover weakened binding; strength is not graded here. For part of these data: Tags and fused reporters may be left off the sequences shown. Values belong to the molecule of their own block, whether it stands above or below them.
Columns and labels:
Flag-ARHGEF16 (human) = molecular target: T1, Flag-ARHGEF16 (human) (UniProt Q5VV41); assay: co-IP; HEK293T cotransfected with Flag-ARHGEF16 and HA-FYN; lysate with Flag beads overnight at 4 °C in lysis buffer (25 mM Tris-HCl pH 7.0, 300 mM NaCl, 1% NP-40)
T1 sequence: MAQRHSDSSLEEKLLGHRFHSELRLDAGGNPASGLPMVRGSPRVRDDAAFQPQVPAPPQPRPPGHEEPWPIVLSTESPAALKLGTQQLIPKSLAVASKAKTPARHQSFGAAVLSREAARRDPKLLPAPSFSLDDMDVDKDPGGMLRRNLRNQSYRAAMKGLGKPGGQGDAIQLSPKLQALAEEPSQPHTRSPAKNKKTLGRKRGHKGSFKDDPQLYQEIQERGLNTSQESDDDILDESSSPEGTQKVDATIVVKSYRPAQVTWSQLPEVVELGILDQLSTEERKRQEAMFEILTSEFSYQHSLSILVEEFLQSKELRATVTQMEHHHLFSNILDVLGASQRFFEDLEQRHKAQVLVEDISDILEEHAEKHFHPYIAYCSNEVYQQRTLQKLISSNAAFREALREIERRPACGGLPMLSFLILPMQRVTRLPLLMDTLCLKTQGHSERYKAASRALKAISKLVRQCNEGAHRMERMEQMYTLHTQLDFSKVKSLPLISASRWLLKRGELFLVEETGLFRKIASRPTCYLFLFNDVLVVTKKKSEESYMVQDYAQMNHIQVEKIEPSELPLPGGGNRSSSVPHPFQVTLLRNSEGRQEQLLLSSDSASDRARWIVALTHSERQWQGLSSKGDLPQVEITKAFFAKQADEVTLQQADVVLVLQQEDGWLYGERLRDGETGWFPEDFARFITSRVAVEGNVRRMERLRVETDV

By UniProt entry, the sequences of proteins in these tests, tags left out.
UniProt P06241: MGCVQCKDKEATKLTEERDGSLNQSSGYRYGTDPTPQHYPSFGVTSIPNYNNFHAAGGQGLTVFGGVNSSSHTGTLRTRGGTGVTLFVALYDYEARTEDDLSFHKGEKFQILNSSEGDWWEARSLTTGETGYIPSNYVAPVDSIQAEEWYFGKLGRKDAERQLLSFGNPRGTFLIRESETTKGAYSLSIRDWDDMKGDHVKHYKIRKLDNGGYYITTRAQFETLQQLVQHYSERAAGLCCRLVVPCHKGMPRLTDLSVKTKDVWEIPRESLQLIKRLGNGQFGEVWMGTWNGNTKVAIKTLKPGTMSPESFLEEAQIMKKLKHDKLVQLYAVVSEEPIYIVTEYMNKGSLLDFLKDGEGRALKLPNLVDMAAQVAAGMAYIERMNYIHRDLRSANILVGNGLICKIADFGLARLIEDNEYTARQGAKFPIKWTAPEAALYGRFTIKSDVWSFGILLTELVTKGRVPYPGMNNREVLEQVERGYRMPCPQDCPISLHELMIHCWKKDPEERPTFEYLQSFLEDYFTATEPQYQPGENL

GST-ARHGEF16 (human) = molecular target: T2, GST-ARHGEF16 (human) (UniProt Q5VV41); assay: pull-down; GST-fusion proteins immobilized on Glutathione Sepharose 4B beads, incubated with lysates of HEK293T cells transfected with HA-FYN; SDS-PAGE and WB; only the target purified
T2 sequence: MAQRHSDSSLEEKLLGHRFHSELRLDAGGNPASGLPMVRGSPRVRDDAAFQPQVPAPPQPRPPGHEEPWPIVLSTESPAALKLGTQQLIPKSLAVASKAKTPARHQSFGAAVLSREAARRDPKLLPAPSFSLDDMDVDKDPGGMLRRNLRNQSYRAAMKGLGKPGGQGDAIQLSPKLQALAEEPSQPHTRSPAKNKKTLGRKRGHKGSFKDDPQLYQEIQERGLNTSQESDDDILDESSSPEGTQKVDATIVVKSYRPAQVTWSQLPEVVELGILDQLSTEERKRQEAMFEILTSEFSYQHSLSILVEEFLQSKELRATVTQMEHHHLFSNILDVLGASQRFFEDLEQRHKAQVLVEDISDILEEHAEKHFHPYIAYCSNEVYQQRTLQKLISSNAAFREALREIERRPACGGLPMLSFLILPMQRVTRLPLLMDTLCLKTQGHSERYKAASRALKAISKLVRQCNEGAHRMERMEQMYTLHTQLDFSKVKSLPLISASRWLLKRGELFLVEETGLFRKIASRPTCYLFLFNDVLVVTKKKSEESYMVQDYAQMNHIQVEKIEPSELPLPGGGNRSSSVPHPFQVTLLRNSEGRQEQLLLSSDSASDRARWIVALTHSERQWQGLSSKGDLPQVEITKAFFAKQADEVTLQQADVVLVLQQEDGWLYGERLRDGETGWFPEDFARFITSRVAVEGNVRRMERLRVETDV

[1] = molecular target: T3, GST-ARHGEF16 (residues 1-274) (human) (UniProt Q5VV41); assay: as above
T3 sequence: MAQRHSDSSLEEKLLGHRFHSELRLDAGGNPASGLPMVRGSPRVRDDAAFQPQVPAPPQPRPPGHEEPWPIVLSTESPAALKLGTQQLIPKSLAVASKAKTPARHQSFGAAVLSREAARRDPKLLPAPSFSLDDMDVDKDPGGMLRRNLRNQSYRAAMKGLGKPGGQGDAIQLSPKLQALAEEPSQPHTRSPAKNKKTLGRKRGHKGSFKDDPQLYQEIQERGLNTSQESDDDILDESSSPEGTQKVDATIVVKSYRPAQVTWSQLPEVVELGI

[2] = molecular target: T4, ARHGEF16 in pGBKT7 (yeast two-hybrid bait) (human) (UniProt Q5VV41); assay: two-hybrid; Matchmaker Gold system; ARHGEF16 in pGBKT7 as bait in Y2HGold, mated with Y187 holding the Universal Human Mate & Plate Library; blue colonies on SD/-Leu/-Trp/X-alpha-Gal/Aba
T4 sequence: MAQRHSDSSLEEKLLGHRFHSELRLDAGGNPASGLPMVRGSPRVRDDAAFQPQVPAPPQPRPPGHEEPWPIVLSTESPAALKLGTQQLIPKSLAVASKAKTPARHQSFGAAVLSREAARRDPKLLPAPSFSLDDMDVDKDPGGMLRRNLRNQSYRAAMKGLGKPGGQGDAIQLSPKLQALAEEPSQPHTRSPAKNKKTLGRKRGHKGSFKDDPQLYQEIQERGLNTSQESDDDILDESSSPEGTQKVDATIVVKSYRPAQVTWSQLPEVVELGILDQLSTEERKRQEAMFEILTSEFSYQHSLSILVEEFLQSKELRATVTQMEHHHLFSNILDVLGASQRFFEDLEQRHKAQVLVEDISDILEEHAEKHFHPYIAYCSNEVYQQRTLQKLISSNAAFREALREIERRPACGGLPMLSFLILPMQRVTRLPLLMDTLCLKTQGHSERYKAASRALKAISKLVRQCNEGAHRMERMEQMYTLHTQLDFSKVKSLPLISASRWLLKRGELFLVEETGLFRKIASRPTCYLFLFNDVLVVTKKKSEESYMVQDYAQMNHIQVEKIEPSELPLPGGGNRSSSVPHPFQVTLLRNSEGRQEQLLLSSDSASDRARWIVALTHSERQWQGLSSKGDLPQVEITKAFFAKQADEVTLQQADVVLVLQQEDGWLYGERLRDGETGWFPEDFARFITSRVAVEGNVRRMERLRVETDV

[3] = molecular target: endogenous FYN in HEK293T cells (human (endogenous in HEK293T)) (UniProt P06241); assay: co-IP; HEK293T extracts with Flag-ARHGEF16; IP with beads coated with anti-FYN antibody or normal rabbit IgG
[4] = molecular target: endogenous FYN in SW620 cells (human (endogenous in SW620)) (UniProt P06241); assay: co-IP; SW620 extracts, endogenous proteins; IP with beads coated with anti-FYN antibody or normal rabbit IgG

binding [2]: binds
Molecule: FYN in pGADT7 (yeast two-hybrid prey) (from UniProt P06241 1-537)

binding [4]: binds
B2: endogenous ARHGEF16 in SW620 cells (protein, UniProt Q5VV41 1-709)
chain: MAQRHSDSSLEEKLLGHRFHSELRLDAGGNPASGLPMVRGSPRVRDDAAFQPQVPAPPQPRPPGHEEPWPIVLSTESPAALKLGTQQLIPKSLAVASKAKTPARHQSFGAAVLSREAARRDPKLLPAPSFSLDDMDVDKDPGGMLRRNLRNQSYRAAMKGLGKPGGQGDAIQLSPKLQALAEEPSQPHTRSPAKNKKTLGRKRGHKGSFKDDPQLYQEIQERGLNTSQESDDDILDESSSPEGTQKVDATIVVKSYRPAQVTWSQLPEVVELGILDQLSTEERKRQEAMFEILTSEFSYQHSLSILVEEFLQSKELRATVTQMEHHHLFSNILDVLGASQRFFEDLEQRHKAQVLVEDISDILEEHAEKHFHPYIAYCSNEVYQQRTLQKLISSNAAFREALREIERRPACGGLPMLSFLILPMQRVTRLPLLMDTLCLKTQGHSERYKAASRALKAISKLVRQCNEGAHRMERMEQMYTLHTQLDFSKVKSLPLISASRWLLKRGELFLVEETGLFRKIASRPTCYLFLFNDVLVVTKKKSEESYMVQDYAQMNHIQVEKIEPSELPLPGGGNRSSSVPHPFQVTLLRNSEGRQEQLLLSSDSASDRARWIVALTHSERQWQGLSSKGDLPQVEITKAFFAKQADEVTLQQADVVLVLQQEDGWLYGERLRDGETGWFPEDFARFITSRVAVEGNVRRMERLRVETDV

Second part, the molecule before the results:

Molecule: HA-FYN (from UniProt P06241 1-537)
binding (Flag-ARHGEF16 (human)): binds | binding (GST-ARHGEF16 (human)): binds | binding [1]: binds

B1: Flag-ARHGEF16 (protein, UniProt Q5VV41 1-709)
chain: MAQRHSDSSLEEKLLGHRFHSELRLDAGGNPASGLPMVRGSPRVRDDAAFQPQVPAPPQPRPPGHEEPWPIVLSTESPAALKLGTQQLIPKSLAVASKAKTPARHQSFGAAVLSREAARRDPKLLPAPSFSLDDMDVDKDPGGMLRRNLRNQSYRAAMKGLGKPGGQGDAIQLSPKLQALAEEPSQPHTRSPAKNKKTLGRKRGHKGSFKDDPQLYQEIQERGLNTSQESDDDILDESSSPEGTQKVDATIVVKSYRPAQVTWSQLPEVVELGILDQLSTEERKRQEAMFEILTSEFSYQHSLSILVEEFLQSKELRATVTQMEHHHLFSNILDVLGASQRFFEDLEQRHKAQVLVEDISDILEEHAEKHFHPYIAYCSNEVYQQRTLQKLISSNAAFREALREIERRPACGGLPMLSFLILPMQRVTRLPLLMDTLCLKTQGHSERYKAASRALKAISKLVRQCNEGAHRMERMEQMYTLHTQLDFSKVKSLPLISASRWLLKRGELFLVEETGLFRKIASRPTCYLFLFNDVLVVTKKKSEESYMVQDYAQMNHIQVEKIEPSELPLPGGGNRSSSVPHPFQVTLLRNSEGRQEQLLLSSDSASDRARWIVALTHSERQWQGLSSKGDLPQVEITKAFFAKQADEVTLQQADVVLVLQQEDGWLYGERLRDGETGWFPEDFARFITSRVAVEGNVRRMERLRVETDV
binding [3]: binds

From PMC7435200
